According to patent US20210347728A1, “4,5-DIHYDROXY-2-(4-METHYLBENZYL)ISOPHTHALONITRILE SOLVATES AND CRYSTALLINE FORMS THEREOF” (Orion Corporation, priority 2018, published 2021):
Some results were stated once for a whole list of compounds, not compound by compound.

Test: Stability and conversion of crystalline forms with relative humidity
Assay type: physicochemical
Conditions: solid-state conversion to form II monohydrate

Cc1ccc(Cc2c(C#N)cc(O)c(O)c2C#N)cc1 [Form I anhydrate, 4,5-dihydroxy-2-(4-methylbenzyl)isophthalonitrile anhydrate]
relative humidity (RH) at which the form is converted to form II monohydrate: above 30%
